{"sequences": {"note": "Chains of the proteins cited; added tags and fusions are not shown.", "UniProt P27695, whole entry, looked up": "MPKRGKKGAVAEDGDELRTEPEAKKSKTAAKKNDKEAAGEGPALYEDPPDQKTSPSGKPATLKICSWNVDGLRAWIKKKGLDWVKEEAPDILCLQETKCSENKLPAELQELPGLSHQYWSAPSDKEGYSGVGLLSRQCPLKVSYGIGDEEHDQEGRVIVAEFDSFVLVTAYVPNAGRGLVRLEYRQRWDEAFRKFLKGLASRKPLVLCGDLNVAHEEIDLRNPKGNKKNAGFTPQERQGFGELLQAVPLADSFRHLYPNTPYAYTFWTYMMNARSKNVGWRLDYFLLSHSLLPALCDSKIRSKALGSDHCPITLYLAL"}, "source": "PubChem BioAssay AID2517", "about": "(National Center for Advancing Translational Sciences (NCATS), 2010)", "note": "About 1,200 (0.34%) of roughly 350,000 compounds were called active. This list was built around the results that the source calls inconclusive (neither active nor inactive); the mix of calls is not that of the screen. Calls come from the whole dose curve; as a rule, active = well fitted inhibition curve with a large enough effect; inconclusive = small, poorly fitted or top-dose-only effect; inactive = no such curve, though single readings can be large or run the other way. Potencies beside an inconclusive call are fits to weak or partial responses and may not hold up.", "data": [{"target": "DNA repair nuclease/redox regulator APEX1 (Homo sapiens) (UniProt P27695)", "assay": "qHTS Assay for Inhibitors of the Human Apurinic/apyrimidinic Endonuclease 1 (APE1); note: nearly all actives have a fitted effect of over 55% in size; note: potency is the fitted concentration of half-maximal effect;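 for activity change, negative = inhibition: plate controls were vehicle for no effect and reference inhibitor for full effect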", "details": "recombinant APE1, TAMRA/BHQ-2 abasic DNA cleavage fluorescence; activity change, negative = inhibition: at 65.8 µM (top of the series)", "summary_of_the_method": "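APE1 at 0.75 nM final was preincubated with compound 15 min at room temperature, then 50 nM double-stranded THF abasic-site substrate (5'-TAMRA/3'-BHQ-2) was added. Fluorescence (ex 525/em 598 nm) was read kinetically; third-minus-first read gave activity.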", "values": [{"molecule": "CCOC(=O)C1CCCN(C(=O)c2ccc(CS(=O)(=O)c3ccc(Br)cc3)o2)C1", "note": "(stereo not given)", "Potency": "inconclusive: 12.6 µM [inhibitor, partial curve, poor fit]"}, {"molecule": "Cc1ccc(-n2c(Cc3cccn3C)nnc2SCC(=O)NCc2ccc3c(c2)OCO3)cc1", "Potency": "inconclusive: 31.6 µM [inhibitor, single point]"}, {"molecule": "C=C1CC2C(=O)N(Cc3cc(OC)ccc3OC)C(C(=O)OCC)C1N2C", "note": "(stereo not given)", "Potency": "inconclusive: 7.94 µM [inhibitor, single point]"}, {"molecule": "COc1ccc(/C(C)=N/NC(=O)CNC(=O)c2ccncc2)c(OC)c1", "activity change, negative = inhibition": "inactive: -20.7%"}, {"molecule": "COc1ccc(Oc2ncccc2[N+](=O)[O-])cc1", "Potency": "inconclusive: 3.98 µM [inhibitor, single point]"}, {"molecule": "Cn1cccc1/C=C1\\SC(=S)N(NC(=O)c2ccccc2)C1=O", "Potency": "inconclusive: 39.8 µM [inhibitor, single point]"}, {"molecule": "COc1cc(NCc2ccc3nc(N)nc(N)c3c2C)cc(OC)c1OC", "Potency": "inconclusive: 39.8 µM [inhibitor, single point]"}, {"molecule": "Cc1ccc(NC(=O)CN2C(=O)S/C(=C\\c3ccc(C(=O)O)cc3)C2=O)cc1", "Potency": "inconclusive: 21.2 µM [inhibitor, single point]"}, {"molecule": "O=C(N/N=C/c1ccco1)c1cc(-c2ccc(Br)s2)[nH]n1", "Potency": "inconclusive: 4.47 µM [inhibitor, partial curve]"}, {"molecule": "Cc1ccc(CN2CC(C(=O)O)CC2=O)cc1", "note": "(stereo not given)", "Potency": "inconclusive: 5.01 µM [inhibitor, single point]"}, {"molecule": "Cc1ccc(N2CC(c3nc4ccccc4n3C)CC2=O)cc1", "note": "(stereo not given)", "Potency": "inconclusive: 3.16 µM [inhibitor, single point]"}, {"molecule": "O=C(Nc1cccnc1)C1CC(=O)N(c2ccc(F)cc2)C1", "note": "(stereo not given)", "activity change, negative = inhibition": "inactive: 27.2%"}, {"molecule": "CCOc1ccc(C(=O)Nc2cccc3nsnc23)cc1[N+](=O)[O-]", "Potency": "inconclusive: 15.8 µM [inhibitor, partial curve]"}, {"molecule": "COc1cccc(CN2CCN(C(=O)c3ccc(-c4ccccc4)cc3)CC2)c1", "activity change, negative = inhibition": "inactive: 13.3%"}, {"molecule": "Cc1ccc(SCCC(=O)OCC(=O)NCC2CCCCC2)cc1", "Potency": "inconclusive: 31.6 µM [inhibitor, partial curve, poor fit]"}, {"molecule": "CC(NC(=O)COC(=O)c1cc(NS(=O)(=O)c2ccc(Cl)c([N+](=O)[O-])c2)ccc1O)C1CC2CCC1C2", "note": "(stereo not given)", "activity change, negative = inhibition": "inactive: -11.7%"}, {"molecule": "COc1cc(/C=C2/NC(=O)N(Cc3ccccc3F)C2=O)ccc1O", "Potency": "inconclusive: 44.7 µM [inhibitor, single point]"}, {"molecule": "COc1ccc(C=C2c3ccccc3C(=O)c3ccccc32)cc1O", "Potency": "inconclusive: 14.1 µM [inhibitor, partial curve, poor fit]"}, {"molecule": "Oc1nc(Nc2cccc(Cl)c2)sc1/C=C1\\C=Nc2ccccc21", "activity change, negative = inhibition": "inactive: -1.1%"}, {"molecule": "COc1ccc2cnnc(SCC(=O)Nc3ccc(C(C)=O)cc3)c2c1OC", "Potency": "inconclusive: 28.2 µM [inhibitor, single point]"}, {"molecule": "CCc1ccc(S(=O)(=O)NCC(O)COc2ccc(OC)cc2)cc1", "note": "(stereo not given)", "Potency": "inconclusive: 0.0316 µM [inhibitor, full curve, poor fit]"}, {"molecule": "Cc1ccc(C2NC(=O)c3c(sc(C)c3C)N2)c(O)c1", "note": "(stereo not given)", "Potency": "inconclusive: 20 µM [inhibitor, single point]"}, {"molecule": "Cc1nn(-c2ccccc2)c(Cl)c1/C=N/NC(=O)C1COc2ccccc2O1", "note": "(stereo not given)", "Potency": "inconclusive: 8.91 µM [inhibitor, partial curve, poor fit]"}, {"molecule": "CCOC(=O)CCN1C(=O)[C@H]2[C@H]3[C@H](O)[C@H](O)C/C(=N/OCC(C)C)[C@@H]3CC[C@@H]2C1=O", "Potency": "inconclusive: 7.08 µM [inhibitor, single point]"}, {"molecule": "Cc1c(Cl)cnc(NC(=O)COC(=O)c2cccc(S(=O)(=O)N3c4ccccc4CC3C)c2)c1Cl", "note": "(stereo not given)", "Potency": "inconclusive: 39.8 µM [inhibitor, partial curve, poor fit]"}, {"molecule": "COC(=O)c1ccc(OC)c(OC)c1Cl", "Potency": "inconclusive: 8.91 µM [inhibitor, single point]"}, {"molecule": "Cc1ccc2nc(Nc3nc(C)cc(C(F)(F)F)n3)nc(C)c2c1", "Potency": "inconclusive: 5.62 µM [inhibitor, single point]"}, {"molecule": "CNS(=O)(=O)c1cccc(C(=O)OCC(=O)C23CC4CC(CC(C4)C2)C3)c1", "Potency": "inconclusive: 25.1 µM [inhibitor, single point]"}, {"molecule": "CS(=O)(=O)Nc1cccc(-c2cncnc2Nc2ccccc2)c1", "Potency": "inconclusive: 5.01 µM [inhibitor, single point]"}, {"molecule": "Cc1nc(SCC(=O)Nc2ccc(F)cc2)c(C#N)c(C)c1CC(=O)c1ccc(Br)cc1", "Potency": "inconclusive: 8.91 µM [inhibitor, single point]"}, {"molecule": "CC(C)C(=O)Nc1ccc(-c2ccc3nncn3n2)cc1", "activity change, negative = inhibition": "inactive: -0.991%"}, {"molecule": "COc1ccccc1CNc1nc(-c2ccc3c(c2)OCO3)nc2ccccc12", "activity change, negative = inhibition": "inactive: 7.48%"}, {"molecule": "N=C1/C(=C/c2ccc(OCc3ccccc3F)cc2)C(=O)N=C2SC(CC(=O)N3CCOCC3)=NN12", "activity change, negative = inhibition": "inactive: -12.5%"}, {"molecule": "Cc1c[nH]c2cccc(OCC(O)CNC(C)(C)C)c12", "note": "(stereo not given)", "Potency": "inconclusive: 35.5 µM [inhibitor, single point]"}, {"molecule": "COc1ccc(/C=C2/SC(=O)N(CCNC(=O)C3CCCN3C(=O)c3cccs3)C2=O)cc1", "note": "(stereo not given)", "Potency": "inconclusive: 35.5 µM [inhibitor, single point]"}, {"molecule": "c1nc(NCCN2CCOCC2)c2cc(-c3ccc4c(c3)OCO4)ccc2n1", "Potency": "inconclusive: 31.6 µM [inhibitor, partial curve, poor fit]"}, {"molecule": "CCC1(CC)NC(=O)N(CC(=O)Nc2sc3c(c2C(N)=O)CCC3)C1=O", "Potency": "active: 17.8 µM"}, {"molecule": "Cc1ccc(NC(=O)CCSc2nc(C)cc(C)n2)cc1", "Potency": "inconclusive: 0.0045 µM [inhibitor, full curve, poor fit]"}, {"molecule": "COc1ccc(OC2C=CC(c3ccccc3)OC2CO)c(C(C)=O)c1", "note": "(stereo not given)", "Potency": "inconclusive: 3.55 µM [inhibitor, single point]"}, {"molecule": "Fc1ccc(NC(=S)Nc2ccccc2Cl)cc1", "Potency": "inconclusive: 39.8 µM [inhibitor, single point]"}, {"molecule": "COc1cc(-c2cc(=O)c3c(O)c(OC)c(OC)c(O)c3o2)ccc1O", "Potency": "inconclusive: 2.24 µM [inhibitor, full curve]"}, {"molecule": "COc1ccc(COCCN2CCN(S(=O)(=O)c3ccc(C)cc3)CCC2=O)cc1", "Potency": "inconclusive: 3.98 µM [inhibitor, single point]"}, {"molecule": "CCSc1nc(N)c(C#N)c(-c2ccco2)c1C#N", "Potency": "inconclusive: 44.7 µM [inhibitor, single point]"}, {"molecule": "Cc1cc2cc(CNC(=O)c3ccc(C)c([N+](=O)[O-])c3)ccc2[nH]1", "Potency": "inconclusive: 2.82 µM [inhibitor, partial curve]"}, {"molecule": "Cc1nnc(SCC(=O)Nc2ccc(S(=O)(=O)Nc3ccc(Cl)nn3)cc2)s1", "Potency": "inconclusive: 23.8 µM [inhibitor, partial curve]"}, {"molecule": "O=C(O)COn1c(-c2ccccc2)nc2ccc([N+](=O)[O-])cc21", "Potency": "inconclusive: 28.2 µM [inhibitor, partial curve]"}, {"molecule": "COc1cccc(C2=Nn3c(nnc3-c3ccccc3OC)SC2)c1", "activity change, negative = inhibition": "inactive: -0.123%"}, {"molecule": "Cc1ccccc1NC(=O)OCCN1CCN(Cc2ccccc2)CCC1=O", "Potency": "inconclusive: 5.01 µM [inhibitor, partial curve]"}, {"molecule": "CC(=O)Nc1ccc(Nc2nc3c(S(=O)(=O)c4ccc(C)c(C)c4)nnn3c3ccccc23)cc1", "Potency": "inconclusive: 10 µM [inhibitor, single point]"}, {"molecule": "OCCN1CCN(CC(O)COc2ccc(C34CC5CC(CC(C5)C3)C4)cc2)CC1", "note": "(stereo not given)", "Potency": "inconclusive: 8.91 µM [inhibitor, full curve]"}, {"molecule": "O=C(COc1ccccc1[N+](=O)[O-])NC1CC1", "Potency": "inconclusive: 1.12 µM [inhibitor, single point]"}, {"molecule": "CCN1C(=O)[C@H]2[C@H]3[C@H](O)[C@H](O)C/C(=N/OC[C@@H](O)COCc4ccco4)[C@@H]3CC[C@@H]2C1=O", "Potency": "inconclusive: 3.16 µM [inhibitor, single point]"}, {"molecule": "CC1=NN(c2ccc(C)c(C)c2)C(=O)/C1=C\\C=C\\c1ccc([N+](=O)[O-])o1", "Potency": "inconclusive: 20 µM [inhibitor, partial curve, poor fit]"}, {"molecule": "COC(=O)[C@@H]1OC(c2ccccc2)O[C@H]1C(=O)OC", "activity change, negative = inhibition": "inactive: -6.66%"}, {"molecule": "CC(C)[C@@H]1NC(=O)c2cc([N+](=O)[O-])cc(I)c2NCCCC[C@@H](C(=O)NC(CC(=O)O)C(N)=O)NC(=O)[C@H](CO)NC1=O", "note": "(stereo not given in full)", "Potency": "inconclusive: 3.98 µM [inhibitor, partial curve]"}, {"molecule": "Cc1nc(NC(=O)C2CC2)sc1C", "Potency": "inconclusive: 31.6 µM [inhibitor, partial curve]"}, {"molecule": "CCOC(=O)C1(Cc2ccccc2C)CCCN(C(=O)c2ccnn2C)C1", "note": "(stereo not given)", "Potency": "inconclusive: 44.7 µM [inhibitor, single point]"}, {"molecule": "COc1ccccc1CNC(=O)C(C)Sc1ccsc1[N+](=O)[O-]", "note": "(stereo not given)", "activity change, negative = inhibition": "inactive: 0.619%"}, {"molecule": "CN(C)CC(O)Cn1c2ccc(Br)cc2c2cc(Br)ccc21", "note": "(stereo not given)", "activity change, negative = inhibition": "inactive: -7.05%"}, {"molecule": "Cc1cc(C(=O)N/N=C/c2ccc(O)c(O)c2O)c(C)n1-c1ccccc1", "Potency": "active: 4.47 µM"}, {"molecule": "CC(C)[C@H](NC(=O)[C@@H]1CSC2c3ccccc3C(=O)N21)C(=O)NCc1ccco1", "note": "(stereo not given in full)", "activity change, negative = inhibition": "inactive: 6.28%"}, {"molecule": "Cc1[nH][nH]c(=O)c1C(c1c(C)[nH][nH]c1=O)c1cn(Cc2ccc(Cl)c(Cl)c2)c2ccccc12", "activity change, negative = inhibition": "inactive: -2.38%"}, {"molecule": "c1nnc(-c2ccc3c(c2)OCO3)o1", "Potency": "inconclusive: 44.7 µM [inhibitor, single point]"}, {"molecule": "COc1ccccc1[C@@H]1C(c2ccccc2)=NN(c2ccc(Br)cc2)[C@H]1C(=O)N1CCOC1=O", "Potency": "inactive"}, {"molecule": "COc1ccc(C(=O)COC(=O)c2cccnc2SC)cc1", "Potency": "inconclusive: 7.08 µM [inhibitor, single point]"}]}]}
